In patent publication US20240060123:
For some assays here: Weaker means in comparison with the reference protein, sequence or condition of that experiment. For some assays here: Tags and fusion partners may be left off the protein sequences shown.

Protein sequences, listed by entry. Tags and fused reporters are not part of them. Lines headed by an entry give the natural chain unless they say otherwise; changes in a name come on top.
UniProt P19821: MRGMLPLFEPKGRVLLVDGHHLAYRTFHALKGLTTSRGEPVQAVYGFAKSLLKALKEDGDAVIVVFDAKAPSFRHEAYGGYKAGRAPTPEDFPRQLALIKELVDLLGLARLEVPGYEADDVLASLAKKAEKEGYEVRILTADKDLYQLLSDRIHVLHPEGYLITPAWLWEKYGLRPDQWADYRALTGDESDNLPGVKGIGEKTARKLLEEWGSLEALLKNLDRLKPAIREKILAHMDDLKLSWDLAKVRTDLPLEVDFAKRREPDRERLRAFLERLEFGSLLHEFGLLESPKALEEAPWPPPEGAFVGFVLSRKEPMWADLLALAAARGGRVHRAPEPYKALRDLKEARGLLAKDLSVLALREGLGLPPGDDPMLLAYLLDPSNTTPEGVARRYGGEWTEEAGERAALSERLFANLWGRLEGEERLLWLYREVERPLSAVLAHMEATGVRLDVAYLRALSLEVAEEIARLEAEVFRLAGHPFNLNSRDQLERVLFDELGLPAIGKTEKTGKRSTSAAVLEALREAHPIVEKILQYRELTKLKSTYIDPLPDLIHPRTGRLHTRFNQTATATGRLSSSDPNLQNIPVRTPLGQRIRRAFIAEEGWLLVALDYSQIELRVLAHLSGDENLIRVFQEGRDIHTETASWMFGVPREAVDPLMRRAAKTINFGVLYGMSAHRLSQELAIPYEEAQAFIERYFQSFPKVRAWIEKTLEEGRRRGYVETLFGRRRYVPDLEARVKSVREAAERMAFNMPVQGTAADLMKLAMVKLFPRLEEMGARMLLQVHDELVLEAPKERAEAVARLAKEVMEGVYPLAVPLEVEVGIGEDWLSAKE
UniProt O34996: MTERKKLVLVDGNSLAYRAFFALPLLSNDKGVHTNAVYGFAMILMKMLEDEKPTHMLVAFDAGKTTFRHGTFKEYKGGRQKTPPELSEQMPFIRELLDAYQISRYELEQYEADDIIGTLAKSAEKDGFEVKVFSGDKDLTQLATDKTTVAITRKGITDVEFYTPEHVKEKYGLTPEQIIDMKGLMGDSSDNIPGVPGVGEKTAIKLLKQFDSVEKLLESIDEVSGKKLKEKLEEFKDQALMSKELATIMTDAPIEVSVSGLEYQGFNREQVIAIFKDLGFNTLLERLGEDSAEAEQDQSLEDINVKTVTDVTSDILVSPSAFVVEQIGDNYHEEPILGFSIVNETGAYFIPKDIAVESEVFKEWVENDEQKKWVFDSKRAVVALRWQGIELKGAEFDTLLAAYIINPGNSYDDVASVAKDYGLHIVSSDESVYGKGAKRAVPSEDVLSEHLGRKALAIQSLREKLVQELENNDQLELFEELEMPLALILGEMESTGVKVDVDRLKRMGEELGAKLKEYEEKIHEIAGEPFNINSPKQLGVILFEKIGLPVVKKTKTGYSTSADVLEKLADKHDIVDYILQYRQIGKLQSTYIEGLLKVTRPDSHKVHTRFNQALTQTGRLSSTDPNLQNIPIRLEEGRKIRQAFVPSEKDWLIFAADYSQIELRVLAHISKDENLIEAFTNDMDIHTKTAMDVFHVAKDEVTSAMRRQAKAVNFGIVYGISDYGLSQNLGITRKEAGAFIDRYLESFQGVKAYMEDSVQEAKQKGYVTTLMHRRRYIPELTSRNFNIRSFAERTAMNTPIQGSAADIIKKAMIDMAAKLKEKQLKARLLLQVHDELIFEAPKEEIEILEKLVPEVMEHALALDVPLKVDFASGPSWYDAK

Key:
[1] = system: T1, G4P-Bst DNA polymerase (G4P fused to N-terminus of Bst large fragment) (Geobacillus stearothermophilus); assay: inhibition of the protein; conditions: purified recombinant protein, folded or branched DNA, dose not given here
T1 sequence: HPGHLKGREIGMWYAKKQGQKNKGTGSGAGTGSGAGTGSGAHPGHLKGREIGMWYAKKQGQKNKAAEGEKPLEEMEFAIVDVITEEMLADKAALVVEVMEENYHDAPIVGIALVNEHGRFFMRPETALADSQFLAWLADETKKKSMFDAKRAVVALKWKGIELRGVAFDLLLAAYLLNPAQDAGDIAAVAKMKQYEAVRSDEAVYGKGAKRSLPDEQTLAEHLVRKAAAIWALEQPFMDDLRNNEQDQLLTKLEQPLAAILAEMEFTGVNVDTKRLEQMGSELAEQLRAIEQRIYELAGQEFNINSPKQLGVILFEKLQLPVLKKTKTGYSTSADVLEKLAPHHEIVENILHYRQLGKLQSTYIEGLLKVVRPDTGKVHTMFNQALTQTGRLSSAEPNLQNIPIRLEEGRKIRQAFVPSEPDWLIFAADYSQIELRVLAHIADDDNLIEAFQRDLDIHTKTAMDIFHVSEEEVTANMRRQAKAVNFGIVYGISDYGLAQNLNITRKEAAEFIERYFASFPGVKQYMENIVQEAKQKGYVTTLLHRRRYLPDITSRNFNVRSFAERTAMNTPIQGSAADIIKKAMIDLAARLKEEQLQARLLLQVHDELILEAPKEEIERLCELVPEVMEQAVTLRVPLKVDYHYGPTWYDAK

G4P-Taq DNA polymerase [2] = molecular target: G4P-Taq DNA polymerase (UniProt P19821); assay: activity assay; conditions: primer extension, active at 25-65 C; 1.5 mM MgCl2; purified recombinant protein; label: 5'-FAM on primer
G4P-Bsu DNA polymerase [3] = molecular target: T2, G4P-Bsu DNA polymerase (UniProt O34996); assay: activity assay; conditions: primer extension, active at 20-50 C; 10 mM MgCl2; purified recombinant protein; label: 5'-FAM on primer
T2 sequence: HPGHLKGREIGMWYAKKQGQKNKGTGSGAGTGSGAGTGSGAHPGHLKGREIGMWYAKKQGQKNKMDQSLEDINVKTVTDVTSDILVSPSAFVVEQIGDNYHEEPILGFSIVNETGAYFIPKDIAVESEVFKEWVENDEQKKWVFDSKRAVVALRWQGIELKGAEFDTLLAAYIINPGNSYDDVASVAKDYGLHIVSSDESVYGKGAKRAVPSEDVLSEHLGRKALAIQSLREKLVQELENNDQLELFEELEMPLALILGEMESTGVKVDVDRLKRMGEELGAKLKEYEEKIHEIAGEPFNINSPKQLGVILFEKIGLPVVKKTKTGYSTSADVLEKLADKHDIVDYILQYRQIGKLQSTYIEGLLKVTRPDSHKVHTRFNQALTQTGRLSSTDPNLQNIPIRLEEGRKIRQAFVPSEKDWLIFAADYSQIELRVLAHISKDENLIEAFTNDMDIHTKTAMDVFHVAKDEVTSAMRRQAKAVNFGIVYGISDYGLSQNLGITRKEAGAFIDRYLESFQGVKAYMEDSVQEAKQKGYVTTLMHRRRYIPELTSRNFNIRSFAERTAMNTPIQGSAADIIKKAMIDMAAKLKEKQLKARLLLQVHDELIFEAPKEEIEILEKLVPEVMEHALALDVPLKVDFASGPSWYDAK

[4] = system: T1, G4P-Bst DNA polymerase (G4P fused to N-terminus of Bst large fragment) (Geobacillus stearothermophilus); assay: activity assay; conditions: primer extension, active at 15-65 C; 8 mM MgSO4, 50 mM KCl, pH 8.8; purified recombinant protein; label: 5'-FAM on primer
G4P-Taq DNA polymerase [5] = molecular target: G4P-Taq DNA polymerase (UniProt P19821); assay: inhibition of the protein; conditions: purified recombinant protein; folded or branched DNA; variant of PC-1; dose not given here
G4P-Bsu DNA polymerase [6] = molecular target: T2, G4P-Bsu DNA polymerase; assay: inhibition of the protein; conditions: purified recombinant protein; folded or branched DNA; variant of PC-1; dose not given here

Sequence: AGACCAGTTTTCTGGTCTTTTTTTTGGGTGGGTGGGTGGGT [PC-H7]
- functional effect of the aptamer ([1]; PC-linker between SEQ 16 and SEQ 17, 7 bp stem inhibits only at 15-40 C, active at 30-65 C after UV, variant of PC-1): less active

Sequence: CCACGACGCAGACCAGTTTTCTGGTCTGCGTCGTGGTTTTTTTGGGTGGGTGGGTGGGT [PC-H16]
- functional effect of the aptamer ([1]; PC-linker between SEQ 22 and SEQ 23, inhibits at 15-65 C, active at 30-65 C after UV, variant of PC-1): active

Sequence: CCAGCCTGCGGCGAGTG / TCTATTACATTCTAAGAGTTAGAGTTAGGGTCTACTCTTCTTCTCTTCTTCACTCGCCGCAGGCTGG [CSTB-A primer / Template-GM]
- activity on this sequence (G4P-Taq DNA polymerase [2]): active
- activity on this sequence (G4P-Bsu DNA polymerase [3]): active
- activity on this sequence [4]: active

Sequence: CGACGCAGACCAGTTTTCTGGTCTGCGTCGTTTTTTTGGGTGGGTGGGTGGGT [PC-H13]
- functional effect of the aptamer ([1]; PC-linker between SEQ 20 and SEQ 21, inhibits at 15-65 C, active at 30-65 C after UV, variant of PC-1): active

Sequence: CGCAGACCAGTTTTCTGGTCTGCGTTTTTT / TGGGTGGGTGGGTGGGT [PC-1 after UV photocleavage]
- functional effect of the aptamer (G4P-Taq DNA polymerase [5]): less active
- functional effect of the aptamer (G4P-Bsu DNA polymerase [6]): less active

Sequence: CGCAGACCAGTTTTCTGGTCTGCGTTTTTTTGGGTGGGTGGGTGGGT [PC-1]
- functional effect of the aptamer ([1]; photocleavable PC-linker between SEQ 6 and SEQ 7, primer extension inhibited at 15-65 C without UV): active

Sequence: CGCAGACCAGTTTTCTGGTCTGCGTTTTTTTGGGTGGGTGGGTGGGT [PC-2]
- functional effect of the aptamer ([1]; PC-linker between SEQ 10 and SEQ 11 (hairpin loop), variant of PC-1): active

Sequence: CGCAGACCAGTTTTCTGGTCTGCGTTTTTTTGGGTGGGTGGGTGGGT [PC-3]
- functional effect of the aptamer ([1]; PC-linker between SEQ 12 and SEQ 13 (G4 loop), variant of PC-1): active

Sequence: CGCAGACCAGTTTTCTGGTCTGCGTTTTTTTGGGTGGGTGGGTGGGT [PC-4]
- functional effect of the aptamer ([1]; PC-linker between SEQ 14 and TGGGTGGGT (G4 loop), variant of PC-1): active

Sequence: CGCAGACCAGTTTTCTGGTCTGCGTTTTTTTGGGTGGGTGGGTGGGT [PC-5]
- functional effect of the aptamer ([1]; PC-linker between SEQ 15 and TGGGT (G4 loop), variant of PC-1): active

Sequence: CGCAGACCAGTTTTCTGGTCTGCGTTTTTTTGGGTGGGTGGGTGGGT [PC-H10]
- functional effect of the aptamer ([1]; PC-linker between SEQ 18 and SEQ 19, inhibits at 15-65 C, active at 30-65 C after UV, variant of PC-1): active
